In the supplement of paper PMC11732987, “Enantioselective OTUD7B fragment discovery through chemoproteomics screening and high-throughput optimisation” (Communications Chemistry, 2025):
This is one part of the list. The data scatter; read single values as rough.

Sequences of proteins named here, by UniProt entry; tags and fusion partners are left off. A change or cut given only in a name is not applied to a line headed by its entry. Residues count along the entry.
UniProt Q9BXS9: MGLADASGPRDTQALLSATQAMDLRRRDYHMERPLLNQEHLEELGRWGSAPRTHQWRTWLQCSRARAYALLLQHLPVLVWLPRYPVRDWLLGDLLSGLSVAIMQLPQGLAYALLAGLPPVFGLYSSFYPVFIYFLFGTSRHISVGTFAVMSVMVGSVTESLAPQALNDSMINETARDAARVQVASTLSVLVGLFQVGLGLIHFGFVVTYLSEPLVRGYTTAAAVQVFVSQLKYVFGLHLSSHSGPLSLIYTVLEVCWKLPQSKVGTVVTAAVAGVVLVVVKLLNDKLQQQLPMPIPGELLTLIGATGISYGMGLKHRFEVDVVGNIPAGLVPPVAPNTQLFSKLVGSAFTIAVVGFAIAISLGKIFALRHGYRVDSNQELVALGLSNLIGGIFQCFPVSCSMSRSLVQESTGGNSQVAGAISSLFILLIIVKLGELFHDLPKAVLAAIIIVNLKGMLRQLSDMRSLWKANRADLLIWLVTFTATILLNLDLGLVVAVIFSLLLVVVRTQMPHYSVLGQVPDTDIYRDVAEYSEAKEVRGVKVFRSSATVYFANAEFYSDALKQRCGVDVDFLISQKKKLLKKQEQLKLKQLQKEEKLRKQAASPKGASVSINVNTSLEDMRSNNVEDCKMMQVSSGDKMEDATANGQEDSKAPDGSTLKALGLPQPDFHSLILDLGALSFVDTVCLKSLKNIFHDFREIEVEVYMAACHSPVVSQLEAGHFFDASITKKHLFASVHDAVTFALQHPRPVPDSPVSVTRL
UniProt Q7KZF4: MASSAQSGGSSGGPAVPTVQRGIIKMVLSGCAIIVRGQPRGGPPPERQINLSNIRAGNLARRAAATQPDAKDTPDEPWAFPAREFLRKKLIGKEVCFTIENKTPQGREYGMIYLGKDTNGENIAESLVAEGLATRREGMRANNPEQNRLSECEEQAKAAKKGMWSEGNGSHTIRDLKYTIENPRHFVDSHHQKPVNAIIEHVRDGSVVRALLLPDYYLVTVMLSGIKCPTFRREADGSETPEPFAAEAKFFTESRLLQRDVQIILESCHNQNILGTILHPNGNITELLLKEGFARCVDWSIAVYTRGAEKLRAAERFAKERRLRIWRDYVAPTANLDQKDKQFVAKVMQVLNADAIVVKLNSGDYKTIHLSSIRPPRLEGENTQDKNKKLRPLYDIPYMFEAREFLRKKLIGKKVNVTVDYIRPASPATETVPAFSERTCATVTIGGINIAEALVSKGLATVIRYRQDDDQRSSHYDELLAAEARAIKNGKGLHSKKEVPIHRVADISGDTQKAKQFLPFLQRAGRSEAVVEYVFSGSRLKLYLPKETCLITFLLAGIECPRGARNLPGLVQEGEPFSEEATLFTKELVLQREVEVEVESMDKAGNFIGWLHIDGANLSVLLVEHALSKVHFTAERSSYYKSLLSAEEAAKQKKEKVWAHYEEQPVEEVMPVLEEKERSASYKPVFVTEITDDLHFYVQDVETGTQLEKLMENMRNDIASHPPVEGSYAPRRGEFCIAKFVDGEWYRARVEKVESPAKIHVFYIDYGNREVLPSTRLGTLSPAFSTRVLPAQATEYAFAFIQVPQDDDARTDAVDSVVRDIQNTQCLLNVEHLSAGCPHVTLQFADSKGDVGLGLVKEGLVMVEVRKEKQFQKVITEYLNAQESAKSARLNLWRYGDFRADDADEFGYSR
UniProt Q96QE2, 26-66: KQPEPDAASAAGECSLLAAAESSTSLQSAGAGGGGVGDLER
UniProt Q15758, 11-42: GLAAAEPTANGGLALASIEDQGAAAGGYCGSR
UniProt Q96AG3: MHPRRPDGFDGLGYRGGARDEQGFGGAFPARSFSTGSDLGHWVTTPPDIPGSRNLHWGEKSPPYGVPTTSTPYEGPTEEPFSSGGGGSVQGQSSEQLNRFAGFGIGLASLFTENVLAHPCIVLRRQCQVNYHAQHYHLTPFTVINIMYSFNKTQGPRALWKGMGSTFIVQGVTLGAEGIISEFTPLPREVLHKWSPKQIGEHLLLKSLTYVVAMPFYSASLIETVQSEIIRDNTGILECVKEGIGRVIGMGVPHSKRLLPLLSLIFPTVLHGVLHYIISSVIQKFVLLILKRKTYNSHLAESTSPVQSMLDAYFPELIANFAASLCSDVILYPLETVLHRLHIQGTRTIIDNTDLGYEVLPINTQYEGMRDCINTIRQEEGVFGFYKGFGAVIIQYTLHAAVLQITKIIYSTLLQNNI
UniProt Q8ND83: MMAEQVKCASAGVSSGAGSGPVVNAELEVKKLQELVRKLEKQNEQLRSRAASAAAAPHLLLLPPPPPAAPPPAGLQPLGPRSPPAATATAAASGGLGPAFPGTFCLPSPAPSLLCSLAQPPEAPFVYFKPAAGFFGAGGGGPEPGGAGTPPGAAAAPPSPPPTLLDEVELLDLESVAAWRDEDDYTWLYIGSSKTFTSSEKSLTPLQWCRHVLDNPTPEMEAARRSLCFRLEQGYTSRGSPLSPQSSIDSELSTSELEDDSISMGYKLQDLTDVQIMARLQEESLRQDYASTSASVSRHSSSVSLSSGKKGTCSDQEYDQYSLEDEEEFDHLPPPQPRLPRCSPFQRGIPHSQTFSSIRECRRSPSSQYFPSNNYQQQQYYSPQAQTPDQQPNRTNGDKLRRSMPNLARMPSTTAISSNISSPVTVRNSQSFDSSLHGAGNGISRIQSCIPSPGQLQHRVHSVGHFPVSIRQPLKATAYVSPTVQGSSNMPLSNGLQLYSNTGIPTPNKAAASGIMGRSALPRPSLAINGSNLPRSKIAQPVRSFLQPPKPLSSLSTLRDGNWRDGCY
UniProt P53007, whole entry, looked up: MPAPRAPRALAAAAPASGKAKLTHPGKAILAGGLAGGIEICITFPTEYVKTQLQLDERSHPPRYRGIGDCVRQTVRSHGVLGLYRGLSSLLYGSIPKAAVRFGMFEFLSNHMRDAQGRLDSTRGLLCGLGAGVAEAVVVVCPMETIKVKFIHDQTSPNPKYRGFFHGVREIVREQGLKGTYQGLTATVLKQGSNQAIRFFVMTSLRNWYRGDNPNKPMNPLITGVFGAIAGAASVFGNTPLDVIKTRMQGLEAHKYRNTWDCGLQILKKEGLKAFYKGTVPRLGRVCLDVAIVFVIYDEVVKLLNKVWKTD
UniProt Q8WV41: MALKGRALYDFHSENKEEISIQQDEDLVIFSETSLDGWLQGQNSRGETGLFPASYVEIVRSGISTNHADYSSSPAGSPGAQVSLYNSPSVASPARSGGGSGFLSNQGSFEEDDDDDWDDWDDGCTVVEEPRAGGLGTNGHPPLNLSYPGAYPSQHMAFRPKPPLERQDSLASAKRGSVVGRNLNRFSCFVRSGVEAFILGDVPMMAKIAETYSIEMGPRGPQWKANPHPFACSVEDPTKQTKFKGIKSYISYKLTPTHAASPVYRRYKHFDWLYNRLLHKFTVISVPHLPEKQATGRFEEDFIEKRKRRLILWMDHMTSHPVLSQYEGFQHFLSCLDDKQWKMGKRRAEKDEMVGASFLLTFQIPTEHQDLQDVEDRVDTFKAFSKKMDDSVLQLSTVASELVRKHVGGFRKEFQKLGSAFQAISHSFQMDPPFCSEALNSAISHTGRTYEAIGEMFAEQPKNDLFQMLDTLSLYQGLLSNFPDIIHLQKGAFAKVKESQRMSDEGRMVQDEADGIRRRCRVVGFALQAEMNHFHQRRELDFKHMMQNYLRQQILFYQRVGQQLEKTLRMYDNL
UniProt Q9NZC9: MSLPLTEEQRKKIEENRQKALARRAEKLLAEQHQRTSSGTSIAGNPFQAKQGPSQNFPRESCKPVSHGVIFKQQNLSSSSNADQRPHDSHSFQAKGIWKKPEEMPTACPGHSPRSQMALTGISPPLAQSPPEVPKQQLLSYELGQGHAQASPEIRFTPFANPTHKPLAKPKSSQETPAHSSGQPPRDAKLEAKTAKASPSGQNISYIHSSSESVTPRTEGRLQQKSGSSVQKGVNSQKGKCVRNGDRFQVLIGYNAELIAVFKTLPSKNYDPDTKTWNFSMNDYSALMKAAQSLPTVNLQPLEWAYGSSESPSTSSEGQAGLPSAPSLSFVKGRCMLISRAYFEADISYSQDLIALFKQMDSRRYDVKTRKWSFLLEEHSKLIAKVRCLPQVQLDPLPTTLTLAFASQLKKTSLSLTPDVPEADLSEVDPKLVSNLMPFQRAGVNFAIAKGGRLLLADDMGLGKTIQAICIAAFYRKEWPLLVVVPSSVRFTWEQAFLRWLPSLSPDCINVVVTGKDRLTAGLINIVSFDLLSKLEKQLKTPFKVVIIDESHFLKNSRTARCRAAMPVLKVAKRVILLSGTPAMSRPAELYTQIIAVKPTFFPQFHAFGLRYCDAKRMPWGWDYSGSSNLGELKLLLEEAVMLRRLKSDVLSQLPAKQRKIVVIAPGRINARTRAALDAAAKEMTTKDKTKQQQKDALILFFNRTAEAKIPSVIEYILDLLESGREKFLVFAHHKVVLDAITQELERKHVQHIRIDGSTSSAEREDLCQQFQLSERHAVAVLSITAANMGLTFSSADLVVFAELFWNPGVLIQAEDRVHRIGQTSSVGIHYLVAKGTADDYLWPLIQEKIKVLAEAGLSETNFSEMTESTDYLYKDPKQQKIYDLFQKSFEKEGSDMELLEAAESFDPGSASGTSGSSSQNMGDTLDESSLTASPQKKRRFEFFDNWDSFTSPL
UniProt Q15477: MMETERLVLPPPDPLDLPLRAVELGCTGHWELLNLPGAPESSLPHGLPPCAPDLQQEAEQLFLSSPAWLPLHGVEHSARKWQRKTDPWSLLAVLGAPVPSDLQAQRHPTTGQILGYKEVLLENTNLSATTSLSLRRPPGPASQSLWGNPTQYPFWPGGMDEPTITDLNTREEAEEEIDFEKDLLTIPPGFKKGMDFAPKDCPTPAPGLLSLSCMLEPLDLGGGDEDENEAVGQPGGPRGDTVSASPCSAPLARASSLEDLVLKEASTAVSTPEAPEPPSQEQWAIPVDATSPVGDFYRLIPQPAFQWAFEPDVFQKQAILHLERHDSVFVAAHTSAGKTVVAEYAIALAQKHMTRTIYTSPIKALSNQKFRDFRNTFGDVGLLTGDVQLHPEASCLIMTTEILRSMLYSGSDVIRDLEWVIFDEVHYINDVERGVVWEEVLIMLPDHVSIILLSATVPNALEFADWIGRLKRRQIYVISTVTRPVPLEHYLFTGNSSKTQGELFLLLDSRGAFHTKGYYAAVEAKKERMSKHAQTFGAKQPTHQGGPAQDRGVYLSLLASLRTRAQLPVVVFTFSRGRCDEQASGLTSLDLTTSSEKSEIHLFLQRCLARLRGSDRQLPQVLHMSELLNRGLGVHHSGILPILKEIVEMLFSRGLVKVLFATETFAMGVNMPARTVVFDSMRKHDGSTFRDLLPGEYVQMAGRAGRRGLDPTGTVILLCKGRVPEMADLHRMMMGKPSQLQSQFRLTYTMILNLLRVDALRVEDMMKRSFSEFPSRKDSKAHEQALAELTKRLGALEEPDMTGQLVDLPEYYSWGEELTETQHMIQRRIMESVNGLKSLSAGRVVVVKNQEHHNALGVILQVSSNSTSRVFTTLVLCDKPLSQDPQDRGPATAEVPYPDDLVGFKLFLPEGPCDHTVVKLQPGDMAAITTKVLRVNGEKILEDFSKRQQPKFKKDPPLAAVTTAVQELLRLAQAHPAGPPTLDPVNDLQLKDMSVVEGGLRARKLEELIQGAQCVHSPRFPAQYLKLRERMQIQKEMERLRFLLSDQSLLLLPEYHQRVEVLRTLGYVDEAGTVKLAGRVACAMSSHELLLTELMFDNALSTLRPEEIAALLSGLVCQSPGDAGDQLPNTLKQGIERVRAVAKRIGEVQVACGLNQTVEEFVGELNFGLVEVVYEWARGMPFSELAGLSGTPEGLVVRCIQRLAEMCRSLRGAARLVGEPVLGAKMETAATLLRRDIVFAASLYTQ
UniProt Q96H20: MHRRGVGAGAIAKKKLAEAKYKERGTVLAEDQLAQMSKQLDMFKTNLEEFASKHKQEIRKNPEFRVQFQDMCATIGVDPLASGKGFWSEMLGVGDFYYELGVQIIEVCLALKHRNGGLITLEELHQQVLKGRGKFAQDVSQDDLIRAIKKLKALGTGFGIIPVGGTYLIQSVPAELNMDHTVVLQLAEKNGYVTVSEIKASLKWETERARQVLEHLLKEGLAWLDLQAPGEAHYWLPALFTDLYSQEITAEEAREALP
UniProt Q86US8, 258-279: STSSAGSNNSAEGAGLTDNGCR
UniProt Q15797: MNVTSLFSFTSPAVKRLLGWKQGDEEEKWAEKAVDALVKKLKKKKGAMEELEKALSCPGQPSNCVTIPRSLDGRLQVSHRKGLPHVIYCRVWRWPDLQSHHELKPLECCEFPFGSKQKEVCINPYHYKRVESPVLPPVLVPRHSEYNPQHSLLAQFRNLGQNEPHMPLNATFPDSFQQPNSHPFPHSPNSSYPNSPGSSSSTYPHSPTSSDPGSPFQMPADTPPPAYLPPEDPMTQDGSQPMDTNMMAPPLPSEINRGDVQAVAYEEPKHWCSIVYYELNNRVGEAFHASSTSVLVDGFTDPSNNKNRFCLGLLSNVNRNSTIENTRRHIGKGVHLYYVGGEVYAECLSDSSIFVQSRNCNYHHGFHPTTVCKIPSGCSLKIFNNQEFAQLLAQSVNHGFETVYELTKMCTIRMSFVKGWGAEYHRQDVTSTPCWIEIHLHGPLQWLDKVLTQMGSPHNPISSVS

Legend:
[1] = compound: ClCC(=O)N[C@@H]1CCCc2ccccc12; experiment: log2 mean competition ratio of IA-DTB cysteine labelling (DMSO/compound) (log2 ratio); higher = stronger cysteine engagement by compound; conditions: treatment time: 4 h, cell line lysate: HEK293T
Protocol: (§1)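 IA-DTB competitive cysteine chemoproteomics in HEK293T RIPA lysate. Lysates were treated with compound 29 or 30 at 50 or 200 µM for 4 h, then IA-DTB (500 µM, 1 h), trypsin-digested, NeutrAvidin-enriched and analysed by diaPASEF. Competition ratio = intensity DMSO / intensity compound (n=4 treated, n=64 DMSO); binding: mean log2 CR ≥ 1 and p ≤ 0.05 plus QC filters. Target is the cysteine site.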

[2] = compound: ClCC(=O)N[C@H]1CCCc2ccccc12; experiment: as above; conditions: treatment time: 4 h, cell line lysate: HEK293T
Protocol: as §1

Target | log2 mean competition ratio ([1]; 50 µM) | log2 mean competition ratio ([1]; 200 µM) | log2 mean competition ratio ([2]; 50 µM) | log2 mean competition ratio ([2]; 200 µM)
SLC26A6 C565 (UniProt Q9BXS9) | -0.172 | 0.423 | -0.393 | 0.359
SLCO2A1 C143 | -0.51 | 0.164 | -0.363 | 0.462
SLC4A1AP C730 (UniProt Q9BWU0) | 0.0906 | -0.0388 | 0.293 | 0.173
SMG1 C3138 (UniProt Q96Q15) | -0.0928 | 0.0982 | 0.153 | 0.374
SMYD4 C640 (UniProt Q8IYR2) | -0.0623 | 0.209 | -0.233 | 0.214
SMG1 C3072 (UniProt Q96Q15) | 0.0208 | 0.142 | -0.643 | 0.151
SLC25A24 C330 (UniProt Q6NUK1) | 0.422 | 0.207 | 0.0916 | 0.212
SLC22A17 C525 | -0.204 | -0.0833 | -0.0594 | 0.139
SND1 C31 (UniProt Q7KZF4) | 0.449 | 0.238 | 0.512 | -0.0604
SLC2A13 C39 (UniProt Q96QE2) | -0.353 | -0.0231 | 0.457 | -0.0429
SLC12A9 C771 (UniProt Q9BXP2) | 0.634 | 0.0213 | -0.0634 | 0.226
SLAIN2 C165 | -0.209 | 0.157 | 0.553 | 0.446
SLC1A5 C39 (UniProt Q15758) | -0.0249 | 0.0713 | 0.454 | -0.0764
SLC12A9 C911 (UniProt Q9BXP2) | 0.18 | 8.21e-05 | 0.355 | -0.0263
SORD C106 (UniProt Q00796) | -0.182 | 0.124 | -0.101 | 0.338
SMG8 C248 (UniProt Q8ND04) | -0.194 | -0.128 | 0.226 | -0.0441
SNX1 C8 (UniProt Q13596) | -0.0502 | 0.0545 | 0.335 | 0.319
SLC25A46 C239 (UniProt Q96AG3) | -0.0967 | -0.141 | -0.375 | -0.0729
SLAIN1 C449 (UniProt Q8ND83) | 0.137 | -0.199 | -0.119 | 0.134
SMURF2 C47 | 0.15 | -0.0524 | 0.0512 | -0.0564
SMARCAD1 C741 (UniProt Q9H4L7) | 0.643 | 0.0236 | -0.163 | -0.0913
SLC25A1 C262 (UniProt P53007) | 0.357 | 0.137 | 0.105 | 0.188
SMARCD2 C355 (UniProt Q92925) | 0.042 | -0.0653 | 0.102 | -0.052
SOWAHC C221 (UniProt Q53LP3) | 0.118 | 0.0246 | -0.0273 | 0.0223

Target | log2 mean competition ratio ([1]; 50 µM) | log2 mean competition ratio ([1]; 200 µM) | log2 mean competition ratio ([2]; 50 µM) | log2 mean competition ratio ([2]; 200 µM)
SNX33 C232 (UniProt Q8WV41) | -0.199 | 0.274 | -0.273 | 0.0785
SNRPB;SNRPN C19;(C19) | -0.165 | -0.0481 | -0.0455 | -0.067
SMARCAL1 C508 (UniProt Q9NZC9) | -0.0376 | -0.533 | -0.395 | -0.16
SMU1 C383 (UniProt Q2TAY7) | -0.114 | -0.0311 | -0.299 | -0.114
SMC1B C29 (UniProt Q8NDV3) | 0.104 | -0.104 | -0.0229 | -0.0314
SNX27 C30 (UniProt Q96L92) | -0.172 | -0.197 | -0.376 | -0.535
SMAD2 C70 (UniProt Q15796) | 0.133 | 0.0976 | 0.0898 | 0.119
SOX2 C265 | -0.0969 | 0.18 | -0.12 | 0.325
SKIV2L C579 (UniProt Q15477) | -0.0596 | 0.123 | -0.00733 | 0.03
SLC38A7 C30 (UniProt Q9NVC3) | -0.0476 | 0.0701 | -0.492 | 0.0275
SNF8 C72 (UniProt Q96H20) | -0.113 | -0.156 | 0.0433 | -0.25
SMG6 C278 (UniProt Q86US8) | -0.371 | 0.191 | -0.192 | 0.475
SMARCC1 C520 (UniProt Q92922) | -0.142 | -0.0507 | -0.05 | -0.0196
SNRNP200 C502 (UniProt O75643) | -0.19 | -0.13 | -0.267 | -0.171
SOGA1 C499 (UniProt O94964) | -0.312 | 0.153 | -0.241 | 0.0423
SMYD4 C296 (UniProt Q8IYR2) | -0.0681 | 0.336 | 0.0141 | 0.0448
SLX4 C1269 (UniProt Q8IY92) | -0.164 | -0.178 | -0.42 | -0.198
SLC2A12 C601 | -0.0752 | 0.229 | -0.209 | 0.364
SNRNP200 C1580 (UniProt O75643) | -0.0879 | -0.0898 | -0.00341 | -0.226
SNUPN C199 (UniProt O95149) | 0.223 | -0.274 | -0.401 | -0.295
SORBS3 C521 (UniProt O60504) | 0.0779 | -0.221 | 0.0923 | -0.136
SMAD1 C378 (UniProt Q15797) | 0.0311 | -0.0574 | 0.205 | -0.14
SLC27A6 C147 (UniProt Q9Y2P4) | 0.124 | 0.0291 | 0.16 | 0.0613
SOCS2 C5 (UniProt O14508) | -0.105 | 0.119 | -0.25 | 0.135

Part of the list above with just log2 mean competition ratio ([1]; 50 µM) and log2 mean competition ratio ([1]; 200 µM):
Target | log2 mean competition ratio ([1]; 50 µM) | log2 mean competition ratio ([1]; 200 µM)
SNRPB;SNRPN C19;(C19) | -0.165 | -0.0481
SMARCAL1 C508 (UniProt Q9NZC9) | -0.0376 | -0.533
